These are yes or no findings as the source states them, for the method shown. Binding seen in cells or lysates may run through a third protein. These calls come from enrichment with a bait or labelling near it, and not all partners need be listed.
Target: SUN1-GFP (PbSUN1 with a C-terminal GFP tag) (P. berghei)
Test: affinity purification with mass spectrometry; GFP-Trap_A beads (2 hr, 4°C) on lysates of purified gametocytes of SUN1-GFP or ALLAN-GFP parasites activated for 6 min (results: 6-8 min), cross-linked with 1% formaldehyde for 10 min before lysis; bound proteins digested with trypsin, LC-MS/MS; WT-GFP gametocytes as control; duplicates

Protein sequences, listed by entry. Tags and fused reporters are not part of them. Lines headed by an entry give the natural chain unless they say otherwise; changes in a name come on top.
UniProt A0A509AQ22: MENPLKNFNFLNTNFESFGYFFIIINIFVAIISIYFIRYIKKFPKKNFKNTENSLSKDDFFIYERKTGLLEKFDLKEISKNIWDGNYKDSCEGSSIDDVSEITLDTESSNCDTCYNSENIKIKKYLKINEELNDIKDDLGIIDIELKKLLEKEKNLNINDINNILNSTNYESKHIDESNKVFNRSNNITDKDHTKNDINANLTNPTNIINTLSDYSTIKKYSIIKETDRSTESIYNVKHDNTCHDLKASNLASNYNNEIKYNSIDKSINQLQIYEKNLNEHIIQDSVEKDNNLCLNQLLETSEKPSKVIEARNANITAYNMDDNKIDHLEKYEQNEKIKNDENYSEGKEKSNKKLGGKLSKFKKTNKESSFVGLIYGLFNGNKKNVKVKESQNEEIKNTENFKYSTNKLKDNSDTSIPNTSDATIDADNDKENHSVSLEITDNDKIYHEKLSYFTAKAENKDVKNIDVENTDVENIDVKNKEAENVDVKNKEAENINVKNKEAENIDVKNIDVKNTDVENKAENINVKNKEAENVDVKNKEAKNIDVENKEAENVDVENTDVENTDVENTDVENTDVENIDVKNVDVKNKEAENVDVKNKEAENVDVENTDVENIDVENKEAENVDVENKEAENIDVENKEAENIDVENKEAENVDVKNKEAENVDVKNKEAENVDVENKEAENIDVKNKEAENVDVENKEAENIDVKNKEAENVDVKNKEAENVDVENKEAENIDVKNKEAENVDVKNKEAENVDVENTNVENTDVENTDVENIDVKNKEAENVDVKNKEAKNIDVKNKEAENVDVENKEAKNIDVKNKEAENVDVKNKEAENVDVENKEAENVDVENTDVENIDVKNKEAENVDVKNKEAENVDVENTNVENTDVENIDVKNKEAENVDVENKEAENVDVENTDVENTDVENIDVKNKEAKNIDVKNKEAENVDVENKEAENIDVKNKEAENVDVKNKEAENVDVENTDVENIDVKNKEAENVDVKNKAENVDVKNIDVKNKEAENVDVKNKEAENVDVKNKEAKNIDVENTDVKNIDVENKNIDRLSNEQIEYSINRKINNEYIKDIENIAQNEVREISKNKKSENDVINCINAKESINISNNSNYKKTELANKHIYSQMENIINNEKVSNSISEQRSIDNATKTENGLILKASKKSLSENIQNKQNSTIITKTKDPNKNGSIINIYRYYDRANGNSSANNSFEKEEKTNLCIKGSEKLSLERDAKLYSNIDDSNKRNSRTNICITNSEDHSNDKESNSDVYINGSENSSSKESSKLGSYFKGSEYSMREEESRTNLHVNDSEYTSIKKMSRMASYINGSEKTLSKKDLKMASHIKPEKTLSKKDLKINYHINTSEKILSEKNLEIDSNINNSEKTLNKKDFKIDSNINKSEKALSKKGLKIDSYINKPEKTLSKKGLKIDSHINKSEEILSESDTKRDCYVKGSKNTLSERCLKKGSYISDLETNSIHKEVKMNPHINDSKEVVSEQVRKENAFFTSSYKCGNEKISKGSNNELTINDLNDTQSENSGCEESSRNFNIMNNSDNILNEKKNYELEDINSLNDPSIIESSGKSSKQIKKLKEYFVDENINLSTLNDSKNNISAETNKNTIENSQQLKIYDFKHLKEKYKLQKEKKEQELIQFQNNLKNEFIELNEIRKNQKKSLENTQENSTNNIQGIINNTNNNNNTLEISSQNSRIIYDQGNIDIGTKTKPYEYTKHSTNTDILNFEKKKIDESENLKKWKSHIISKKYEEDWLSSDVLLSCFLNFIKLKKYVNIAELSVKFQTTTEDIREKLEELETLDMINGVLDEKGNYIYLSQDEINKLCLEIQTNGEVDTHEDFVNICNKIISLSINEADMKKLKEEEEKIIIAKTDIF

In the case of “DDRGK-domain containing UFM1 E3 ligase (from UniProt A0A509AQ22)”, the binding is reported as “binds”.

— PMC12092005
